{"source": "PubChem BioAssay AID493246 (Drosophila RNAi Screening Center, 2011)", "assay": "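Genes fly cells need to grow and stay alive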 (primary screen)", "system": "Drosophila Kc and S2R+ cells", "reagent": "long dsRNA against Drosophila genes", "measurement": "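Cell number per well after knock-down, printed as raw plate values; calls were based on per-plate z-scores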", "direction": "Kc cell number and S2R+ cell number: higher = more cells remaining", "rule for the call": "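Active when the per-plate z-score of cell number is 3 or more in the direction of fewer cells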", "note": "The screen tested about 21,000 reagents; this is an unselected part of those with a known target gene and a result. Over the whole deposit, 429 (2%) got an active call. 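Values are raw and not normalised between plates; calls rest on per-plate z-scores that were not deposited.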 Not stated in the record: the amount of reagent, the time to read-out."}
{"Target gene": "pita", "amplicon": "DRSC04006", "Kc cell number, rep 1": 1.45e6, "Kc cell number, rep 2": 1.46e6, "S2R+ cell number, rep 1": 9.96e5, "S2R+ cell number, rep 2": 1.13e6, "Call": "inactive"}
{"Target gene": "pita", "amplicon": "DRSC04435", "Kc cell number, rep 1": 1.50e6, "Kc cell number, rep 2": 1.52e6, "S2R+ cell number, rep 1": 1.19e6, "S2R+ cell number, rep 2": 1.29e6, "Call": "inactive"}
{"Target gene": "CG5346", "amplicon": "DRSC15778", "Kc cell number, rep 1": 1.34e6, "Kc cell number, rep 2": 1.53e6, "S2R+ cell number, rep 1": 1.23e6, "S2R+ cell number, rep 2": 1.13e6, "Call": "inactive"}
{"Target gene": "CG12054", "amplicon": "DRSC14467", "Kc cell number, rep 1": 2.04e5, "S2R+ cell number, rep 1": 4.56e5, "Call": "active"}
{"Target gene": "CG7164", "amplicon": "DRSC03018", "Kc cell number, rep 1": 1.71e6, "Kc cell number, rep 2": 1.73e6, "S2R+ cell number, rep 1": 1.16e6, "S2R+ cell number, rep 2": 1.27e6, "Call": "inactive"}
{"Target gene": "Pus1", "amplicon": "DRSC15548", "Kc cell number, rep 1": 1.36e6, "Kc cell number, rep 2": 1.35e6, "S2R+ cell number, rep 1": 1.04e6, "S2R+ cell number, rep 2": 1.12e6, "Call": "inactive"}
{"Target gene": "Myb", "amplicon": "DRSC20260", "Kc cell number, rep 1": 5.55e5, "S2R+ cell number, rep 1": 9.29e5, "Call": "inactive"}
{"Target gene": "CG14309", "amplicon": "DRSC14788", "Kc cell number, rep 1": 1.22e6, "Kc cell number, rep 2": 1.28e6, "S2R+ cell number, rep 1": 1.07e6, "S2R+ cell number, rep 2": 1.12e6, "Call": "inactive"}
{"Target gene": "CG2121", "amplicon": "DRSC06819", "Kc cell number, rep 1": 1.31e6, "Kc cell number, rep 2": 1.35e6, "S2R+ cell number, rep 1": 1.08e6, "S2R+ cell number, rep 2": 1.19e6, "Call": "inactive"}
{"Target gene": "CG2121", "amplicon": "DRSC06820", "Kc cell number, rep 1": 1.70e6, "Kc cell number, rep 2": 1.75e6, "S2R+ cell number, rep 1": 1.41e6, "S2R+ cell number, rep 2": 1.54e6, "Call": "inactive"}
{"Target gene": "Zyx", "amplicon": "DRSC17186", "Kc cell number, rep 1": 1.12e6, "Kc cell number, rep 2": 1.37e6, "S2R+ cell number, rep 1": 1.06e6, "S2R+ cell number, rep 2": 1.02e6, "Call": "inactive"}
{"Target gene": "CG13615", "amplicon": "DRSC14618", "Kc cell number, rep 1": 1.39e6, "Kc cell number, rep 2": 1.44e6, "S2R+ cell number, rep 1": 1.02e6, "S2R+ cell number, rep 2": 1.13e6, "Call": "inactive"}
{"Target gene": "CG34225", "amplicon": "DRSC05270", "Kc cell number, rep 1": 1.56e6, "Kc cell number, rep 2": 1.53e6, "S2R+ cell number, rep 1": 1.09e6, "S2R+ cell number, rep 2": 1.23e6, "Call": "inactive"}
{"Target gene": "CG2070", "amplicon": "DRSC06814", "Kc cell number, rep 1": 1.88e6, "Kc cell number, rep 2": 1.82e6, "S2R+ cell number, rep 1": 1.25e6, "S2R+ cell number, rep 2": 1.45e6, "Call": "inactive"}
{"Target gene": "CG33494", "amplicon": "DRSC13715", "Kc cell number, rep 1": 1.18e6, "Kc cell number, rep 2": 1.50e6, "S2R+ cell number, rep 1": 1.06e6, "S2R+ cell number, rep 2": 1.08e6, "Call": "inactive"}
{"Target gene": "lark", "amplicon": "DRSC11362", "Kc cell number, rep 1": 1.20e6, "Kc cell number, rep 2": 1.24e6, "S2R+ cell number, rep 1": 1.11e6, "S2R+ cell number, rep 2": 1.10e6, "Call": "inactive"}
{"Target gene": "Or94b", "amplicon": "DRSC16773", "Kc cell number, rep 1": 1.44e6, "Kc cell number, rep 2": 1.39e6, "S2R+ cell number, rep 1": 9.56e5, "S2R+ cell number, rep 2": 1.08e6, "Call": "inactive"}
{"Target gene": "CG13995", "amplicon": "DRSC00907", "Kc cell number, rep 1": 1.43e6, "Kc cell number, rep 2": 1.42e6, "S2R+ cell number, rep 1": 1.02e6, "S2R+ cell number, rep 2": 1.18e6, "Call": "inactive"}
{"Target gene": "CG13995", "amplicon": "DRSC02327", "Kc cell number, rep 1": 1.65e6, "Kc cell number, rep 2": 1.32e6, "S2R+ cell number, rep 1": 1.14e6, "S2R+ cell number, rep 2": 1.30e6, "Call": "inactive"}
{"Target gene": "Treh", "amplicon": "DRSC04548", "Kc cell number, rep 1": 1.33e6, "Kc cell number, rep 2": 1.45e6, "S2R+ cell number, rep 1": 1.10e6, "S2R+ cell number, rep 2": 1.16e6, "Call": "inactive"}
{"Target gene": "ppl", "amplicon": "DRSC11899", "Kc cell number, rep 1": 1.69e6, "Kc cell number, rep 2": 1.67e6, "S2R+ cell number, rep 1": 1.37e6, "S2R+ cell number, rep 2": 1.46e6, "Call": "inactive"}
{"Target gene": "Ugt35D1", "amplicon": "DRSC15107", "Kc cell number, rep 1": 1.60e6, "Kc cell number, rep 2": 1.61e6, "S2R+ cell number, rep 1": 1.03e6, "S2R+ cell number, rep 2": 1.18e6, "Call": "inactive"}
{"Target gene": "CG31406", "amplicon": "DRSC12777", "Kc cell number, rep 1": 1.33e6, "Kc cell number, rep 2": 1.52e6, "S2R+ cell number, rep 1": 1.00e6, "S2R+ cell number, rep 2": 1.24e6, "Call": "inactive"}
{"Target gene": "CG4101", "amplicon": "DRSC10400", "Kc cell number, rep 1": 1.43e6, "Kc cell number, rep 2": 1.61e6, "S2R+ cell number, rep 1": 1.20e6, "S2R+ cell number, rep 2": 1.32e6, "Call": "inactive"}
{"Target gene": "hid", "amplicon": "DRSC11316", "Kc cell number, rep 1": 1.38e6, "Kc cell number, rep 2": 1.50e6, "S2R+ cell number, rep 1": 1.32e6, "S2R+ cell number, rep 2": 1.37e6, "Call": "inactive"}
{"Target gene": "CG31464", "amplicon": "DRSC14345", "Kc cell number, rep 1": 1.79e6, "Kc cell number, rep 2": 2.03e6, "S2R+ cell number, rep 1": 1.30e6, "S2R+ cell number, rep 2": 1.40e6, "Call": "inactive"}
{"Target gene": "nub", "amplicon": "DRSC01260", "Kc cell number, rep 1": 1.53e6, "Kc cell number, rep 2": 1.57e6, "S2R+ cell number, rep 1": 1.02e6, "S2R+ cell number, rep 2": 1.15e6, "Call": "inactive"}
{"Target gene": "nub", "amplicon": "DRSC02498", "Kc cell number, rep 1": 1.47e6, "Kc cell number, rep 2": 1.49e6, "S2R+ cell number, rep 1": 1.13e6, "S2R+ cell number, rep 2": 1.33e6, "Call": "inactive"}
{"Target gene": "nub", "amplicon": "DRSC02499", "Kc cell number, rep 1": 1.66e6, "Kc cell number, rep 2": 1.83e6, "S2R+ cell number, rep 1": 1.19e6, "S2R+ cell number, rep 2": 1.34e6, "Call": "inactive"}
{"Target gene": "nub", "amplicon": "DRSC03583", "Kc cell number, rep 1": 1.45e6, "Kc cell number, rep 2": 1.47e6, "S2R+ cell number, rep 1": 1.17e6, "S2R+ cell number, rep 2": 1.23e6, "Call": "inactive"}

Ordered by “Kc cell number, rep 1” (descending): 2 of the entries above
{"Target gene": "CG2070", "amplicon": "DRSC06814", "Kc cell number, rep 1": 1.88e6, "Kc cell number, rep 2": 1.82e6, "S2R+ cell number, rep 1": 1.25e6, "S2R+ cell number, rep 2": 1.45e6, "Call": "inactive"}
{"Target gene": "CG34225", "amplicon": "DRSC05270", "Kc cell number, rep 1": 1.56e6, "Kc cell number, rep 2": 1.53e6, "S2R+ cell number, rep 1": 1.09e6, "S2R+ cell number, rep 2": 1.23e6, "Call": "inactive"}
